Test results from PubChem BioAssay AID1273 (Columbia University Molecular Screening Center, 2008).
Some of the results follow.

Assay: inhibitors of insulin promoter-driven GFP, primary screen, imaging, TRM-6 cells (human fetal islet line), eGFP reporter, cell count (AID 1273;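 also: cells exposed to compound for 48 h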)
Conditions: measured here: cell count, toxicity, at 2 µM, reporter expression induced with tamoxifen

| Structure (SMILES) | normalized cell count [%] |
| --- | --- |
| COc1ccc(N/C(=N/P(=O)(N2CCOCC2)N2CCOCC2)N2CCOCC2)cc1 | 136 |
| Cc1c2c(nc3ccccc13)SC(C(Cl)Cl)C2 (centres undefined) | 116 |
| O=C(OC1CN2CCC1CC2)C12CC3CC(CC(C3)C1)C2 (centres undefined) | 153 |
| CCN(CC)CCCOC(=O)C(O)(c1ccccc1)c1ccccc1 | 148 |
| Cc1cc(=O)[nH]c(N[N+](=O)[O-])n1 | 126 |
| COc1ccc2nc(NP(=O)(c3ccccc3)c3ccccc3)sc2c1 | 143 |
| CCOC(=O)c1ccc(NP(C)(=O)Oc2ccccc2)cc1 (centres undefined) | 207 |
| ClCCSc1nnc(-c2cccnc2)o1 | 130 |
| CCN(CC)C(=S)SC(NC=O)C(Cl)(Cl)Cl (centres undefined) | 135 |
| COc1ccc(OP(C)(=O)Nc2cccc(F)c2)cc1 (centres undefined) | 118 |
| CC(C)(C)c1ccc(OP(C)(=O)Nc2ccc(SC(F)(F)F)cc2)cc1 (centres undefined) | 116 |
| Cc1ccc2nc3c(c(C)c2c1)CC(C(Cl)Cl)S3 (centres undefined) | 81 |
| CP(=S)(Nn1cnnc1)Oc1ccccc1 (centres undefined) | 95.4 |
| COc1ccccc1OP(C)(=O)Nc1ccccc1 (centres undefined) | 109 |
| CP(=O)(Nc1ccccc1Br)Oc1ccccc1 (centres undefined) | 104 |
| CCOP(C)(=S)SCC(=O)NC(C)C(=O)O (centres undefined) | 101 |
| CCOC(=O)c1ccc(NP(C)(=O)Oc2ccc(OC)cc2)cc1 (centres undefined) | 118 |
| CCC(C)N(CC(C)C)C(=S)SC(NC(C)=O)C(Cl)(Cl)Cl (centres undefined) | 115 |
| CP(=O)(Nc1ccccn1)Oc1ccc(Cl)cc1 (centres undefined) | 116 |
| COP1(=S)c2c(C)nn(CCC#N)c2N=C(c2ccc(F)cc2)N1C (centres undefined) | 97.3 |
| CP(=O)(NC(=O)Nc1ccccc1)Oc1ccccc1 (centres undefined) | 73.7 |
| Cc1cc(C)cc(OP(C)(=O)Nc2ccc(SC(F)(F)F)cc2)c1 (centres undefined) | 110 |
| Cc1nc2ccc3ccccc3c2s1.O=[N+]([O-])c1cc([N+](=O)[O-])c(O)c([N+](=O)[O-])c1 | 82.3 |
| CC1(CBr)Cn2c(nc3ccccc3c2=O)S1 (centres undefined) | 117 |

| Structure (SMILES) | normalized cell count [%] |
| --- | --- |
| CN1CCCCC1COC(=O)C1(O)c2ccccc2CCc2ccccc21 (centres undefined) | 123 |
| COc1ccccc1OP(C)(=O)Nc1c(C)cccc1C (centres undefined) | 89.7 |
| CCCOc1ccc(NP(C)(=O)Oc2ccc(Cl)cc2)cc1 (centres undefined) | 56.1 |
| CP(=O)(Nc1ccc(SC(F)(F)F)cc1)Oc1ccccc1 (centres undefined) | 173 |
| Cc1ccc(OCC(=O)OC2CN3CCC2CC3)cc1 (centres undefined) | 102 |
| Cc1nn(-c2ccccc2)c2c1P(=O)(N1CCOCC1)N(C)C(c1ccccc1)=N2 (centres undefined) | 91.4 |
| COc1cc(C2NCCC3(OCCO3)C2(C)C)cc(OC)c1OC.O=[N+]([O-])c1cc([N+](=O)[O-])c(O)c([N+](=O)[O-])c1 (centres undefined) | 77.1 |
| O=[N+]([O-])c1ccc2c(c1)nnn2O | 126 |
| CCOP1(=S)c2c(C)nn(CCC#N)c2N=C(c2ccccc2F)N1C (centres undefined) | 119 |
| O=P(Nc1nccs1)(Oc1ccccc1)Oc1ccccc1 | 105 |
| Cc1cc(C)cc(OP(C)(=O)Nc2ccccn2)c1 (centres undefined) | 193 |
| Cc1ccc(C)c(NP(C)(=O)Oc2ccccc2)c1 (centres undefined) | 188 |
| CCOP(=O)(Nc1cccc2ccccc12)OCC | 79 |
| COc1cc(C(=O)NCC2(N3CCOCC3)CCCCC2)cc(Cl)c1OC(C)C | 172 |
| Cc1cccc(OCC(=O)OC2CN3CCC2CC3)c1 (centres undefined) | 116 |
| Cc1cc(C)cc(OP(C)(=O)Nc2ccc(C)cc2C)c1 (centres undefined) | 90.2 |
| CCOC(=O)c1ccc(NP(C)(=O)Oc2cc(C)cc(C)c2)cc1 (centres undefined) | 108 |
| O=C(OCCN1CCN(CCOCc2ccccc2)CC1)C(O)(c1ccccc1)c1ccccc1 | 51.1 |
| CC(C)(C)C(=O)NC(Sc1ccccc1)C(Cl)(Cl)Cl (centres undefined) | 84 |
| CCC(=O)N1C2C3N(C(=O)CC)C1C1N(C(=O)CC)C(C(N1C(=O)CC)N3C(=O)CC)N2C(=O)CC | 124 |
| CCN(CC)CCCOC(=O)C(O)(c1ccccc1)C1CCCCC1 (centres undefined) | 86.8 |
| COC(=O)c1cc2c(s1)N=C(c1ccccc1)N(C)P2(=O)N1CCOCC1 (centres undefined) | 47.4 |
| Cc1ccc(OP(=O)(Nc2ccccn2)Oc2ccc(C)cc2)cc1 | 75.1 |
| CC(=O)NC(SC(=S)N(CC(C)C)CC(C)C)C(Cl)(Cl)Cl (centres undefined) | 55.3 |

| Structure (SMILES) | normalized cell count [%] |
| --- | --- |
| CP(=O)(Nc1ccccc1)Oc1ccc(F)cc1 (centres undefined) | 203 |
| c1ccc(-c2nn[nH]n2)c(-c2nn[nH]n2)c1 | 96.1 |
| COc1ccc(OP(C)(=O)Nc2ccc(SC(F)(F)F)cc2)cc1 (centres undefined) | 100 |
| CCOC(=O)c1ccc(NP(C)(=O)Oc2ccc(F)cc2)cc1 (centres undefined) | 99.3 |
| CC(=O)NC(SC(=S)N(C)C)C(Cl)(Cl)Cl (centres undefined) | 85.8 |
| C(Cc1nn[nH]n1)Cc1nn[nH]n1 | 147 |
| CN(C)CCOC(=O)C(O)(c1ccccc1)C1CCCCC1 (centres undefined) | 107 |
| CP(=O)(Nc1ccc2c(c1)OCCO2)Oc1ccccc1 (centres undefined) | 129 |
| Cc1ccccc1NP(C)(=O)Nc1ccccc1C | 126 |
| O=P(Nc1nccs1)(c1ccccc1)c1ccccc1 | 51.1 |
| CC(C)C(=O)NC(Sc1ccccc1)C(Cl)(Cl)Cl (centres undefined) | 95.4 |
| CCN(/C(=N/P(=O)(N1CCOCC1)N1CCOCC1)N1CCOCC1)c1ccc(OC)cc1 | 102 |
| CP(=O)(Nc1ccc(Cl)cc1)Oc1ccc(F)cc1 (centres undefined) | 143 |
| COc1ccccc1OP(C)(=O)Nc1ccccc1Br (centres undefined) | 98.3 |
| CC(C)(C)c1ccc(OP(C)(=O)O)cc1 | 126 |
| CC1CCN(C(=O)Oc2c(Cl)cc(Cl)c3cccnc23)CC1 | 113 |
| CN(C)C(=O)c1c([N+](=O)[O-])cc([N+](=O)[O-])cc1[N+](=O)[O-] | 96.6 |
| CN(C)C(=O)OCCc1n(C)cc[n+]1C | 105 |
| CCN(CC)CC(O)COC(=O)C(O)(c1ccccc1)C1CCCCC1 (centres undefined) | 236 |
| COc1ccc(OP(C)(=O)Nc2ccc(Br)cc2)cc1 (centres undefined) | 95.5 |
| COc1ccc(C2=NCC(CBr)S2)cc1 (centres undefined) | 98.8 |
| O=[N+]([O-])c1cc([N+](=O)[O-])c(CCNc2ccccc2)c([N+](=O)[O-])c1 | 85.9 |
| CCc1nc2c(n1)c1c(non1O)c1c2no[n+]1[O-] | 71.6 |
| CC(=O)N1C2C3N(C(C)=O)C1C1N(C(C)=O)C(C(N1C(C)=O)N3C(C)=O)N2C(C)=O | 64.8 |

| Structure (SMILES) | normalized cell count [%] |
| --- | --- |
| O=[N+]([O-])c1cccc2n[nH]nc12 | 132 |
| COc1ccccc1OP(C)(=O)Nc1c(C)n(C)n(-c2ccccc2)c1=O (centres undefined) | 99 |
| O=[N+]([O-])c1ncn(CCn2ncnc2[N+](=O)[O-])n1 | 90.2 |
| CP(=O)(OC12CC3CC(CC(C3)C1)C2)OC12CC3CC(CC(C3)C1)C2 | 104 |
| CCOC(=O)c1ccc(NP(C)(=O)Oc2ccc(Cl)cc2)cc1 (centres undefined) | 79.4 |
| Cc1nc2ccc3ccccc3c2o1.O=[N+]([O-])c1cc([N+](=O)[O-])c(O)c([N+](=O)[O-])c1 | 81.5 |
| CCN(N=Nc1nonc1N)c1nonc1N | 103 |
| COc1ccc(OP(C)(=O)Nc2ccccc2Br)cc1 (centres undefined) | 98.8 |
| CCOP(=O)(Nc1ccccc1)OCC | 93.7 |
| COc1ccccc1OP(C)(=O)Nc1ccc(C)c(C)c1 (centres undefined) | 124 |
| Oc1ccccc1CNc1ccccn1 | 132 |
| O=C(NC(Sc1ccncn1)C(Cl)(Cl)Cl)c1ccccc1 (centres undefined) | 126 |
| Cc1c(NP(C)(=O)Oc2ccc(C(C)C)cc2)c(=O)n(-c2ccccc2)n1C (centres undefined) | 67.6 |
| CC(C)CC(=O)NC(Sc1ccc(Cl)cc1)C(Cl)(Cl)Cl (centres undefined) | 80.2 |
| CCc1ccc(OP(C)(=O)O)cc1 | 116 |
| CP(=O)(Nc1ccccn1)Oc1ccccc1 (centres undefined) | 174 |
| COc1ccccc1OP(C)(=O)Nc1ccc(C)cc1C (centres undefined) | 69.6 |
| Cc1ccc(N/C(=N/P(=O)(N2CCOCC2)N2CCOCC2)N2CCOCC2)cc1 | 113 |
| NC(=O)c1cc([N+](=O)[O-])cc([N+](=O)[O-])c1N | 118 |
| CN1CCCC(OC(=O)C(c2ccccc2)c2ccccc2)C1 (centres undefined) | 206 |
| CN(C)CCOC(=O)C(O)(c1ccccc1)C1CCCC1 (centres undefined) | 106 |
| COc1ccc(OP(C)(=O)Nc2ccccn2)cc1 (centres undefined) | 68.5 |
